Article PMC12220973

Amino acid sequences for entries named in this document (tags omitted).
UniProt P46934: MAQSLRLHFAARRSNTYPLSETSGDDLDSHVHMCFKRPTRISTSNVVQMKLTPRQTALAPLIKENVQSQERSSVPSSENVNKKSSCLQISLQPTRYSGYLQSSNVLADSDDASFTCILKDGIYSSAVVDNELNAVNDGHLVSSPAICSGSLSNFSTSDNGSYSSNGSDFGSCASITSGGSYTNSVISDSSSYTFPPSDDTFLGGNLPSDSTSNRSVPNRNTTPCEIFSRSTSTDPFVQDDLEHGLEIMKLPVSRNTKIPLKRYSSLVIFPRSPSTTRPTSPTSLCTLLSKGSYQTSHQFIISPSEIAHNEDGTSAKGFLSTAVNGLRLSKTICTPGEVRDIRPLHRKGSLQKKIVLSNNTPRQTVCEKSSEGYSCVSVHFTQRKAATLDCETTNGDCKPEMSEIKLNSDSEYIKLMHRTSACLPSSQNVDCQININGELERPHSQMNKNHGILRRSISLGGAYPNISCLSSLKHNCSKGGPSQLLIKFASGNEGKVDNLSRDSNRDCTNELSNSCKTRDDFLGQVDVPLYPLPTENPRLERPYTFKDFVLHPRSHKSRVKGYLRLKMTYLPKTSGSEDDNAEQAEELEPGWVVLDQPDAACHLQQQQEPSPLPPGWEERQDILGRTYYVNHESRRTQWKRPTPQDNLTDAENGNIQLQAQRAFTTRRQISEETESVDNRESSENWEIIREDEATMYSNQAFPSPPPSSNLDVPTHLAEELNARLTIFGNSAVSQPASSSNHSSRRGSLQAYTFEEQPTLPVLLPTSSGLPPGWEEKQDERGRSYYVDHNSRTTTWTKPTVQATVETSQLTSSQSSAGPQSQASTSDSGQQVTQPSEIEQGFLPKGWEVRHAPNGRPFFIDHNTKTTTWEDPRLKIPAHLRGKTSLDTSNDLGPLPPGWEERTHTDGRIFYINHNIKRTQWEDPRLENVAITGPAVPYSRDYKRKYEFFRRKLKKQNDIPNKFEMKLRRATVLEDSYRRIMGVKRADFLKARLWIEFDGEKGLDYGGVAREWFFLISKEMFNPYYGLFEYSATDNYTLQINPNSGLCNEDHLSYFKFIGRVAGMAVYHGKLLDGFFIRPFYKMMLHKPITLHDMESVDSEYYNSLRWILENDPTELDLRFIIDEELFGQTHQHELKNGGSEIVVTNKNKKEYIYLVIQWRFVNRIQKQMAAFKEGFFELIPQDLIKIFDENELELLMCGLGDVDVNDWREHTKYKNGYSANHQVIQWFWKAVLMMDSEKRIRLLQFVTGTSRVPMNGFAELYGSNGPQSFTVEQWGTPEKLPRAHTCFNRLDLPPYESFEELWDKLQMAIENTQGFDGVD
UniProt P19474: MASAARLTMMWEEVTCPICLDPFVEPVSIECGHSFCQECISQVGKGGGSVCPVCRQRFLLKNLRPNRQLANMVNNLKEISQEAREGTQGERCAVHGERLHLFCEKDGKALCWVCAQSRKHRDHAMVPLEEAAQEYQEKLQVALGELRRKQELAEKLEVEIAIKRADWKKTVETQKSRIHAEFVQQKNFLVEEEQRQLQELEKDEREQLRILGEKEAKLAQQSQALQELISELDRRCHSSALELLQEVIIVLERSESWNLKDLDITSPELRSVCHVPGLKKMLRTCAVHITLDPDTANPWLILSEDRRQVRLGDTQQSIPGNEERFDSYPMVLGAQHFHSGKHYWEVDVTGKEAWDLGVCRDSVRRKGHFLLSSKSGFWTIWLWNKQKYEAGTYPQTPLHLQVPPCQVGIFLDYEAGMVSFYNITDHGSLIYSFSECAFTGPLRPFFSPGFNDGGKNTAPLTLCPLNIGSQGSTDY

Target: T1, PBX1 (human (endogenous in human glomerular MCs)) (UniProt P40424)
T1 sequence: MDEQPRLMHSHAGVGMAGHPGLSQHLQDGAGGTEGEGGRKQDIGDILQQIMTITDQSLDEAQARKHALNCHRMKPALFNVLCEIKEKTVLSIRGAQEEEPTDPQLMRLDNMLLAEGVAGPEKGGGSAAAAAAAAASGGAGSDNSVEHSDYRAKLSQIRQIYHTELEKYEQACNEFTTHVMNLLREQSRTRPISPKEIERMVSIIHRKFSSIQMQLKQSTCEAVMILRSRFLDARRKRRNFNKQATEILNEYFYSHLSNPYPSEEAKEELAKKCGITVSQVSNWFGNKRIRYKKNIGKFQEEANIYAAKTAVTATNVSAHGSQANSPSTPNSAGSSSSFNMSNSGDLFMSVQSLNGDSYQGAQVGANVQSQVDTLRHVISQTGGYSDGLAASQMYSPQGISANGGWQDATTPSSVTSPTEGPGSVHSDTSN
Assay: affinity purification with mass spectrometry; mass spectrometry of PBX1-binding proteins in MCs; E3 ubiquitin ligases screened from both the HC and LN (DNA-IC stimulated) groups; only proteins with more than 1 peptide shown

binding, binds:
NEDD4 (from UniProt P46934 1-1319) (enzyme)
TRIM21 (from UniProt P19474 1-475) (enzyme)
SIAH1B (enzyme)

Results are given in words; binding and its absence hold for the method and conditions named. Binding seen in cells or lysates may run through a third protein. A yes stands for co-enrichment or nearness to the bait. Other partners may have been found.
